Assay results from patent US20090209606A1 (priority 2004, published 2009).

System: 60 human tumor cell lines
Conditions: NCI COMPARE

SMILES: Nc1ncn([C@@H]2O[C@H](CO)[C@@H](O)[C@@H]2O)c(=O)n1 [Ara-AC (Fazarabine), Fazarabine]
- Correlation (PCC) with bendamustine, TGI: 0.524 (TGI)
